Values from PubChem BioAssay AID1671195 (Yale University, 2021)
The whole screen tested about 22,000 reagents; below is an unselected part. Of all reagents, about 1,510 (6.9%) are marked active. 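Active includes knockdowns raising or lowering LDL uptake; positive z-scores mean more uptake, negative mean less.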

Assay: 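Knockdowns that increase or decrease uptake of fluorescent LDL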 (primary screen)
Cell system: human Huh7 hepatoma cells
Reagents: siRNA pool against human genes, 18 nM
Timing: about 2 to 2.5 days of knockdown, then 8 h LDL uptake
Treatment: DiI-labelled LDL at 30 µg/ml for 8 h, in lipoprotein-deficient serum medium
Measured: 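Fluorescent LDL signal imaged in cells, scaled to the plate median, robust z-score for each replicate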
Reading the numbers: robust z-score: higher = more LDL uptake after knockdown
Rule for the call: 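a gene counts as active if at least two replicate z-scores exceed ±2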

gene	robust z-score, replicate 1	robust z-score, replicate 2	robust z-score, replicate 3	call
E2F4	1.58	1.47	-0.783	inactive
NYNRIN	-1.03	-0.0338	0.804	inactive
CD7	-1.38	0.915	-0.811	inactive
FAM90A1	-0.475	0.551	-0.313	inactive
LOC148915 (retired record)	0.329	0.457	0.605	inactive
ERVK13-1	-0.36	-0.735	-0.597	inactive
LOC440407 (retired record)	-0.49	-0.59	-1.01	inactive
VCP	2.65	1.73	3.08	active
CYSRT1	-0.109	-0.454	-0.156	inactive
UBALD2	-0.903	-0.79	-0.507	inactive
SURF2	1.55	1.75	1.92	inactive
SRXN1	-1.53	-1.02	-0.372	inactive
FNDC3B	-1.77	-1.57	-1.6	inactive
CRLF1	0.74	0.0503	-0.414	inactive
IFITM3P8	1.47	1.88	1.34	inactive
CDX2	-0.62	-2.11	-1.18	inactive
LOC442030 (retired record)	1.57	0.368	0.231	inactive
CIT	-2.33	-2.18	-1.75	active
GAK	-1.04	-1.15	-1.91	inactive
OR52K1	0.0653	0.041	-0.152	inactive
TPPP2	0.204	-0.352	-0.646	inactive
LOC400729 (retired record)	-0.0477	-1.47	-0.548	inactive
SON	-0.704	0.8	-0.596	inactive
LMNTD1	-0.175	0.797	0.0525	inactive
MAU2	-0.275	-0.48	-0.134	inactive
IMPDH1	0.405	0.182	0.256	inactive
DMRTB1	-0.226	-0.315	-0.588	inactive
TMEM179	1.08	2.19	1.67	inactive
LOC440466 (retired record)	-0.502	-0.335	-0.732	inactive

In a second layout: 6 of the entries above.
gene | robust z-score, replicate 1 | robust z-score, replicate 2 | robust z-score, replicate 3 | call
SRXN1 | -1.53 | -1.02 | -0.372 | inactive
FNDC3B | -1.77 | -1.57 | -1.6 | inactive
CRLF1 | 0.74 | 0.0503 | -0.414 | inactive
IFITM3P8 | 1.47 | 1.88 | 1.34 | inactive
CDX2 | -0.62 | -2.11 | -1.18 | inactive
LOC442030 (retired record) | 1.57 | 0.368 | 0.231 | inactive

Next records follow.
gene	robust z-score, replicate 1	robust z-score, replicate 2	robust z-score, replicate 3	call
KCNK16	2.23	0.2	2.07	active
LINC00937	-0.104	0.176	0.304	inactive
QSER1	-0.965	-1.1	-0.704	inactive
CCNL2	1.57	1.95	1.32	inactive
GPATCH2L	-0.0715	0.2	0.273	inactive
LOC285101 (retired record)	1.05	0.973	0.618	inactive
PATE4	-0.516	-1.68	-1.61	inactive
RAB11FIP5	1.16	1.76	0.495	inactive
SLC22A17	-0.12	-0.859	-1.01	inactive
SCMH1	-2.2	-0.616	-2.05	active
CD302	2.01	1.73	2.21	active
RFX7	0.661	1.59	0.995	inactive
RPL26	0.429	-0.017	0.685	inactive
MUC6	-1.41	-1.16	-1.24	inactive
LOC401945 (retired record)	-1.11	0.178	-0.752	inactive
PSMB2	1.24	0.427	1.27	inactive
LOC388563 (retired record)	-1.51	-1.21	-1.29	inactive
